Experimental data reported in PMC11753375.
Results are given in words; binding and its absence hold for the method and conditions named. In cells and extracts the contact can be indirect. A result given as binding can be weak or reduced; the word gives no strength.

Target: endogenous USP5 in HL-1 CMs (mouse (endogenous in HL-1))
Assay: co-IP; endogenous proteins of HL-1 cardiomyocytes; Pierce Classic Magnetic IP/Co-IP Kit with anti-USP5 or IgG; immunoblot

binding: binds
B1: endogenous HDAC6 in HL-1 CMs (enzyme, UniProt Q9Z2V5 1-1149)
chain: MTSTGQDSSTRQRKSRHNPQSPLQESSATLKRGGKKCAVPHSSPNLAEVKKKGKMKKLSQPAEEDLVVGLQGLDLNPETRVPVGTGLVFDEQLNDFHCLWDDSFPESPERLHAIREQLILEGLLGRCVSFQARFAEKEELMLVHSLEYIDLMETTQYMNEGELRVLAETYDSVYLHPNSYSCACLATGSVLRLVDALMGAEIRNGMAVIRPPGHHAQHNLMDGYCMFNHLAVAARYAQKKHRIQRVLIVDWDVHHGQGTQFIFDQDPSVLYFSIHRYEHGRFWPHLKASNWSTIGFGQGQGYTINVPWNQTGMRDADYIAAFLHILLPVASEFQPQLVLVAAGFDALHGDPKGEMAATPAGFAHLTHLLMGLAGGKLILSLEGGYNLRALAKGVSASLHTLLGDPCPMLESCVVPCASAQTSIYCTLEALEPFWEVLERSVETQEEDEVEEAVLEEEEEEGGWEATALPMDTWPLLQNRTGLVYDEKMMSHCNLWDNHHPETPQRILRIMCHLEEVGLAARCLILPARPALDSELLTCHSAEYVEHLRTTEKMKTRDLHREGANFDSIYICPSTFACAKLATGAACRLVEAVLSGEVLNGIAVVRPPGHHAEPNAACGFCFFNSVAVAARHAQIIAGRALRILIVDWDVHHGNGTQHIFEDDPSVLYVSLHRYDRGTFFPMGDEGASSQVGRDAGIGFTVNVPWNGPRMGDADYLAAWHRLVLPIAYEFNPELVLISAGFDAAQGDPLGGCQVTPEGYAHLTHLLMGLAGGRIILILEGGYNLASISESMAACTHSLLGDPPPQLTLLRPPQSGALVSISEVIQVHRKYWRSLRLMKMEDKEECSSSRLVIKKLPPTASPVSAKEMTTPKGKVPEESVRKTIAALPGKESTLGQAKSKMAKAVLAQGQSSEQAAKGTTLDLATSKETVGGATTDLWASAAAPENFPNQTTSVEALGETEPTPPASHTNKQTTGASPLQGVTAQQSLQLGVLSTLELSREAEEAHDSEEGLLGEAAGGQDMNSLMLTQGFGDFNTQDVFYAVTPLSWCPHLMAVCPIPAAGLDVSQPCKTCGTVQENWVCLTCYQVYCSRYVNAHMVCHHEASEHPLVLSCVDLSTWCYVCQAYVHHEDLQDVKNAAHQNKFGEDMPHSH
